PMC7819943, “Rice protein-binding microarrays: a tool to detect cis-acting elements near promoter regions in rice”
This is one part of the list.

What follows are sequences tested against T1, OsSMF1 (Oryza sativa, UniProt Q6ZLB0 1-436) (assay: protein-binding microarray (RPBM); PBS, 2% BSA, 51.3 ng/ul salmon testes DNA, 50 uM zinc acetate, 200 nM TF, 25 C, 1 h; high values mean tight binding). Conditions: protein: recombinant; tags: N-terminal polyhistidine and DsRed monomer fusion (pET32a); chain copies: 2; label: CyDye5-dUTP incorporated in the synthesized complementary strand; 3' TTTTT single-stranded linker to array surface; dsDNA, one strand shown.
T1 sequence: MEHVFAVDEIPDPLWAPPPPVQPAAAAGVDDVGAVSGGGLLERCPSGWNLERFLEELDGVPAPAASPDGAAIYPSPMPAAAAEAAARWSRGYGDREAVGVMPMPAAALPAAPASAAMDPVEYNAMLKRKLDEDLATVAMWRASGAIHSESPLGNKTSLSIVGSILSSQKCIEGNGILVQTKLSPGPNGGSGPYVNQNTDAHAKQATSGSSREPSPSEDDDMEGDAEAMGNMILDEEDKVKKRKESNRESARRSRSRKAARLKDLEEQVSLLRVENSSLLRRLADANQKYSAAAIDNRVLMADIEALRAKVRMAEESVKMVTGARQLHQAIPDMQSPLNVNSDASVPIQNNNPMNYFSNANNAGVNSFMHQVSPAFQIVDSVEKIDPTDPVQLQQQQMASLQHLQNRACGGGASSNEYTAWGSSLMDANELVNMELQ
Procedure, shortened: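 Transcription factors, each fused N-terminally to a polyhistidine tag and DsRed, were expressed in E. coli BL21-CodonPlus and purified on Ni–NTA. A custom Agilent array was made double-stranded by primer extension with Cy5-dUTP and blocked with 2% BSA. It was incubated with 200 nM protein in PBS, 2% BSA, salmon testes DNA and 50 µM zinc acetate at 25 °C for 1 h, then washed. The binding signal is per-feature fluorescence intensity (arbitrary units) read on an Axon 4000B scanner.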

| Sequence | binding signal |
| --- | --- |
| TTCTGGATGCAGCTATCTTCCTACTGAAAGAAATCGGCGCCGGAGTCACCTAGTGCAG | 29000 fluorescence intensity (a.u.) |
| TGTGGACAATGCTAGAAAGTCTTACATTGTCAAACGGATGCGGAGTCACCTAGTGCAG | 39500 fluorescence intensity (a.u.) |
| AGCCACGTAGGTGCCACATCATTTAAAACCGGGCACAATACGGAGTCACCTAGTGCAG | 10600 fluorescence intensity (a.u.) |
| ATTGGTTAGGTCTTTTATGGTGGAATCAGTCCACTTAGGTCGGAGTCACCTAGTGCAG | 21000 fluorescence intensity (a.u.) |
| TTCTAGTGGTGTGTAATTAAGGACCATGTTGCGCAATACACGGAGTCACCTAGTGCAG | 4380 fluorescence intensity (a.u.) |
| CAAATCATGACGCAATTAAGTTTAAAAGATTTGTCTCATACGGAGTCACCTAGTGCAG | 3910 fluorescence intensity (a.u.) |
| CTCGGACGCTGAAATCCATCGTGGAGTTGAGGCCGCCGAACGGAGTCACCTAGTGCAG | 3790 fluorescence intensity (a.u.) |
| GATGGGCCCACCCGTCATCCACACGAGGGCCACGCCTTGCCGGAGTCACCTAGTGCAG | 3380 fluorescence intensity (a.u.) |
| ACCGTGTACACTAACCGATGATGCACAGCATGTACACATGCGGAGTCACCTAGTGCAG | 4370 fluorescence intensity (a.u.) |
| ACCCTGGTAGTGGTAGGCCCCACACCGTCAGCGGCACACGCGGAGTCACCTAGTGCAG | 4710 fluorescence intensity (a.u.) |
| TTGTGTGAGGTCCACGTGAGTCCTACTTCCCACATCAGTTCGGAGTCACCTAGTGCAG | 7080 fluorescence intensity (a.u.) |
| CCGACTGAGTTCCTCGCATCGCGTCACATCGTGTTCATATCGGAGTCACCTAGTGCAG | 3650 fluorescence intensity (a.u.) |
| TCCTCTCCCACGAAAGATCCGCACCAGCTTTGTCAGCTTTCGGAGTCACCTAGTGCAG | 3180 fluorescence intensity (a.u.) |
| CAGATATTATATTACGTAACATCTTCGTCAAGCTTACAATCGGAGTCACCTAGTGCAG | 3850 fluorescence intensity (a.u.) |
| GAATTCGATACCACGTAGCCAAGGTTCTCCTAGCTATCGCCGGAGTCACCTAGTGCAG | 3870 fluorescence intensity (a.u.) |
| GAGGAGGAGAGGACACGTGTACTTACGGTGGCAGAGCCGCCGGAGTCACCTAGTGCAG | 18700 fluorescence intensity (a.u.) |
| CCTGCCTGCCTGCAGAGACTGCTTGAACGGTTTGTCGTTACGGAGTCACCTAGTGCAG | 4000 fluorescence intensity (a.u.) |
| TTCAAATTCAACGTCAACTTTTCCACATGTACAGTTCATGCGGAGTCACCTAGTGCAG | 3820 fluorescence intensity (a.u.) |
| TAGAGCCAGAGCTAGAGCATCACAGAGAAAGAAGAACTTGCGGAGTCACCTAGTGCAG | 28200 fluorescence intensity (a.u.) |
| GACGGGACGGGGCGAGGCGTGTGACAGGCCGCCTGCTGCCCGGAGTCACCTAGTGCAG | 26800 fluorescence intensity (a.u.) |
| AAAATTACCCACCATGCCACCCCACTCCCTCTTTAGACTGCGGAGTCACCTAGTGCAG | 4570 fluorescence intensity (a.u.) |

Quoted from the listing:
For binding signal, TGTGGACAATGCTAGAAAGTCTTACATTGTCAAACGGATGCGGAGTCACCTAGTGCAG is entered as 39500 fluorescence intensity (a.u.)
For binding signal, CTCGGACGCTGAAATCCATCGTGGAGTTGAGGCCGCCGAACGGAGTCACCTAGTGCAG is entered as 3790 fluorescence intensity (a.u.)

Going on with the list.

| Sequence | binding signal |
| --- | --- |
| GAAGCAGGGATTTGAAACCACTCAAATCCACCACTGCAAACGGAGTCACCTAGTGCAG | 3420 fluorescence intensity (a.u.) |
| ACTGAACGCAATGAACTAATGATGTTTTGCCATCGTATTGCGGAGTCACCTAGTGCAG | 3780 fluorescence intensity (a.u.) |
| AGCATAGGGTATCACTCATGGCGGCCAAATTCCCACCGAACGGAGTCACCTAGTGCAG | 3220 fluorescence intensity (a.u.) |
| CATGCACTGCCAGCACTCCTAATTTCGGATGCTTGTTGTCCGGAGTCACCTAGTGCAG | 3560 fluorescence intensity (a.u.) |
| CACTTCACCCACGTTGAGCTCCACGTCGCCGGCTGCTGCCCGGAGTCACCTAGTGCAG | 7910 fluorescence intensity (a.u.) |
| AATGACTGCTCCATTCCTGATCTGAATCAGTGGTTCCAACCGGAGTCACCTAGTGCAG | 20200 fluorescence intensity (a.u.) |
| ACCCACCCACCCCTCGACTTTCACATAATTACATCCAGGTCGGAGTCACCTAGTGCAG | 30700 fluorescence intensity (a.u.) |
| TTCGAAGTGGAGTAGAATCACAGTTCACAGAGCTAAGCTACGGAGTCACCTAGTGCAG | 17700 fluorescence intensity (a.u.) |
| ATTTTGTTTTCAATTTTCTGATCATGATCTGGCTGTTTTGCGGAGTCACCTAGTGCAG | 3470 fluorescence intensity (a.u.) |
| CTATTCTCTGCGCCACATCATCGTATGAGTCTACACGGTACGGAGTCACCTAGTGCAG | 15200 fluorescence intensity (a.u.) |
| GGTTGTTCATTTGTGCTACTTGTGACTGTGTTACATCTGTCGGAGTCACCTAGTGCAG | 4120 fluorescence intensity (a.u.) |
| GCCTGAGCTGCCACAGCCATCCACGTAGCTACTTCTACTGCGGAGTCACCTAGTGCAG | 5210 fluorescence intensity (a.u.) |
| TCGTCGATCCCCAATCTGACTCGGGTCTCTCCTTTGGTGTCGGAGTCACCTAGTGCAG | 3500 fluorescence intensity (a.u.) |
| CGGCGCACGAGTCGGCTTCCTCCAGTTTCACACTGCTTCGCGGAGTCACCTAGTGCAG | 3480 fluorescence intensity (a.u.) |
| GTGTATATATAGAGTATACATTATAGTGACTCTGCTTAAGCGGAGTCACCTAGTGCAG | 3960 fluorescence intensity (a.u.) |
| AGCCGGTGCGTGCGTGGGCGCGTGACGCGGGACTCCGGGCCGGAGTCACCTAGTGCAG | 3520 fluorescence intensity (a.u.) |
| TCGCCCGCACGTGGCCCTCCTCTCCTCCCTCCCACCTCGTCGGAGTCACCTAGTGCAG | 3380 fluorescence intensity (a.u.) |
| AGGTCAAGCCACATGTGATCCCCAATATTCCTACTTCCAGCGGAGTCACCTAGTGCAG | 3440 fluorescence intensity (a.u.) |
| ATTCCACGGTTCGTTTCCACCGCGCGCGCCACGGCGAGCTCGGAGTCACCTAGTGCAG | 3490 fluorescence intensity (a.u.) |
| TGAACCCCACATGTCAGCTTTACTACTCCCTTCTTCCCTACGGAGTCACCTAGTGCAG | 4350 fluorescence intensity (a.u.) |
| CTCAAGTTAAAATGATGCGTTGGCACGTAAAAGAACATATCGGAGTCACCTAGTGCAG | 4430 fluorescence intensity (a.u.) |
